Results of single-concentration screens

Measurements from “University of Dundee, Small-Polar-MMV Screening Library” (2021), ChEMBL document CHEMBL3988442.

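Assay of Toxoplasma gondii numbers, read through their beta-galactosidase reporter with a colour substrate. Tested at 50 µM. Higher reads as fewer parasites (inferred from which compounds were picked for retests). About 18,000 compounds were tested under these conditions; 0.94% (about 170) showed 50% or more at least once.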

Each number is a percent effect as filed.
The controls that fix the scale are not given in the record; negative values are as filed.
Compounds were drawn at random from those tested, without regard to their results.

compound,percent effect
CN1CCC(C(=O)N(C)Cc2ccccn2)CC1=O (centres undefined),24.01%
CC(CO)NC(=O)c1ccc2c(c1)CCCC2 (centres undefined),0.4395%
O=C(NCc1cccnc1)c1ccc(C(F)(F)F)nc1,2.561%
CCC(=O)NC(C)(C)C,-16.15%
Cc1nnc(NC(=O)NC2CCNCC2)s1,1.833%
Cc1nn(C)cc1C(C)Nc1ncccc1C#N (centres undefined),-9.008%
O=C(Cc1ccc(O)c(Cl)c1)NC[C@@H]1C[C@H](F)CN1,-4.335%
O=C(OCCOc1cccnc1)C1CC1,43.8%
CCn1cc(Br)c(=O)c(NC(=O)Cc2cccnc2)c1,-5.296%
CSc1cccc(F)c1CN,2.771%
COc1ccc2c(c1)OCC(CNS(=O)(=O)N(C)C)C2 (centres undefined),1.758%
N#Cc1ccc(S(=O)(=O)NCCN)cc1C(F)(F)F,17.02%
CN(C)C[C@@H]1CN(C(=O)c2ccccc2Cl)C[C@@H]1CO,4.917%
CN(C)c1cc(CNC(=O)c2ccccn2)ccn1,-6.528%
COCC(C)NC(=O)CNc1ccccc1OC(F)F (centres undefined),-1.433%
CCN1CC2(CCN(CC(=O)N(C)C)CC2)OC1=O,-21.9%
CCC[C@H]1CN(S(=O)(=O)c2ccnn2CCC)C[C@@H]1N,-5.677%
CCN(CC)S(=O)(=O)N1CCNCC1,-3.294%
O=C(c1ccc(Cn2ccnn2)cc1)N1CCCC1,-13.48%
N#Cc1cc(C#N)c(SCCN2CCCCC2)nc1N,-6.909%
Nc1nc(CO)cs1,-9.591%
NC(=O)C1CN(C/C=C/c2ccc(F)cc2)CCO1 (centres undefined),-1.115%
CN(C(=O)CCNC(=O)C1CCCO1)c1ccccc1 (centres undefined),4.833%
Cn1cnc2cc(F)ccc21,-2.59%
Cc1c(Br)c(C(=O)N2CCN3CCCC3C2)nn1C (centres undefined),-8.856%
OC1(C(F)(F)F)CCOCC1,-0.9757%
Cc1ccc2nc(COCC(=O)NCCCO)[nH]c2c1,14.06%
CS(=O)(=O)N[C@@H]1CCOC[C@H]1OCc1cscn1,0.7987%
COC(=O)C1Cc2ccccc2N1 (centres undefined),-2.977%
Cc1ccc(NC(=O)N2CCOC(CO)C2)cc1 (centres undefined),-0.131%
Cc1ccc(C(=O)NCCCN2CCN(C)CC2)cc1,-4.578%
CCc1nnc(NC(=O)c2ccc(S(=O)(=O)NC)o2)s1,-1.635%
COc1ccc(NC(=O)C(C)n2cccn2)cn1 (centres undefined),-2.581%
C1CC(N2CCOCC2)CCN1,9.86%
OCCNCCNCc1ccc(-c2ccccc2F)o1,8.012%
CN1CCC(C)(CN)CC1,8.129%
Cc1nccc(C(C)N)n1 (centres undefined),-20.25%
O=C(Nc1cc(F)cc(F)c1)C1CCCCN1 (centres undefined),15.95%
COC(CN)C(C)(C)C (centres undefined),2.284%
CC1(C)CC(NC(=O)c2ccc(O)cc2F)CCO1 (centres undefined),-5.309%
COc1cc(Cl)c(CNC(C)(CO)CO)cc1Cl,2.19%
COc1cc(CNC2CC2)ccc1O,-1.255%
CCc1ccccc1OCCN1CCOCS1(=O)=O,16.3%
c1ccc(OCCCNCc2ccco2)nc1,-0.5602%
COCc1cc(=O)[nH]c(C(C)(C)N)n1,1.744%
CCc1n[nH]c(NC(=O)c2cc(C(C)=O)cs2)n1,-2.258%
O=C(C1CCCO1)N1CCN(c2ccccc2F)CC1 (centres undefined),-7.287%
CC(C)c1nc(CN2CCS(=O)(=O)CC2)co1,-4.691%
O=C(C1CC12CCNCC2)N1CCCCC1 (centres undefined),2.312%
CCN1CCN(CC(=O)Nc2ccc(OC)cc2)CC1,6.454%
CNc1snc(C)c1C(=O)NCc1ncoc1C,10.83%
CNC1(CO)CCc2ccccc21 (centres undefined),-7.482%
CCNC(=O)Nc1cc(OC)cc(OC)c1,0.8369%
O=C(Cn1ccnc1)Nc1ccc(OC(F)F)cc1,-3.068%
COC(=O)Cc1cc(O)n[nH]1,-7.467%
CN(Cc1ccc(Br)cc1)C(=O)CSc1nc(N)n[nH]1,-7.679%
Nc1nc(NCc2ccncc2)cc(-n2cccn2)n1,5.393%
CC(Cc1ccccc1F)NC1(C(N)=O)CC1 (centres undefined),9.323%
CSCCC(O)C(=O)NCC1(Cn2cccn2)CC1 (centres undefined),4.917%
COC(=O)C(C)N(c1cc(Cl)ccc1OC)S(C)(=O)=O (centres undefined),2.877%
Cc1nn(C)c(C)c1S(=O)(=O)N[C@@H]1C=C[C@H](CO)C1,-6.029%
CCC(=O)N(Cc1ccccc1)CC(C)(C)O,15.6%
CCOc1ccc(C(=O)NC2CCN(C)CC2)cc1,5.09%
CC(C)c1cc(C(=O)N[C@H]2CC[C@H]2N)on1,-28.14%
COc1cc(OC)c(NC(=O)Cn2ccnc2)cc1Cl,-20.61%
O=C(Nc1ccccn1)NC1CCCCC12OCCO2 (centres undefined),-0.4395%
CSCCCNC(=O)c1nn(C)c2c1CCCC2,4.119%
CC(C)C(NC(=O)c1ccco1)C(=O)N1CCOCC1 (centres undefined),-3.141%
COc1cc(CNC(=O)c2[nH]nc(C)c2Br)ccc1O,-23.11%
O=C(NCCNCc1ccsc1)c1ccn[nH]1,-3.028%
O=C1NCCCCC1N1CCNCC1 (centres undefined),-10.63%
CN1CCCC(C)(CO)C1 (centres undefined),9.245%
CCc1nccn1CCCNC(=O)CN1CCOC1=O,-5.348%
CC(c1ccc(F)cc1)N(C)C(=O)CCCN (centres undefined),0.518%
CN(C)CCNC(=O)c1cc(F)cc(F)c1,4.099%
COc1cc(F)ccc1N(C)CC(=O)N1CCCC1,23.27%
Clc1ccc(CSc2cnn[nH]2)s1,-14.75%
Cc1nn(C)c(C)c1C1CCCN1 (centres undefined),20.74%
C[C@@H]1CN(C(=O)CCN(C)S(C)(=O)=O)C[C@@]1(O)C1CC1,8.843%

Once more, the final 5:

{"compound": "CN(C)CCNC(=O)c1cc(F)cc(F)c1", "percent effect": 4.099}
{"compound": "COc1cc(F)ccc1N(C)CC(=O)N1CCCC1", "percent effect": 23.27}
{"compound": "Clc1ccc(CSc2cnn[nH]2)s1", "percent effect": -14.75}
{"compound": "Cc1nn(C)c(C)c1C1CCCN1", "stereo": "centres undefined", "percent effect": 20.74}
{"compound": "C[C@@H]1CN(C(=O)CCN(C)S(C)(=O)=O)C[C@@]1(O)C1CC1", "percent effect": 8.843}